Laboratory results: paper PMC11962650
These are yes or no findings as the source states them, for the method shown. Binding seen in cells or lysates may run through a third protein.

Sequences of proteins named here, by UniProt entry; tags and fusion partners are left off.
UniProt Q86U44: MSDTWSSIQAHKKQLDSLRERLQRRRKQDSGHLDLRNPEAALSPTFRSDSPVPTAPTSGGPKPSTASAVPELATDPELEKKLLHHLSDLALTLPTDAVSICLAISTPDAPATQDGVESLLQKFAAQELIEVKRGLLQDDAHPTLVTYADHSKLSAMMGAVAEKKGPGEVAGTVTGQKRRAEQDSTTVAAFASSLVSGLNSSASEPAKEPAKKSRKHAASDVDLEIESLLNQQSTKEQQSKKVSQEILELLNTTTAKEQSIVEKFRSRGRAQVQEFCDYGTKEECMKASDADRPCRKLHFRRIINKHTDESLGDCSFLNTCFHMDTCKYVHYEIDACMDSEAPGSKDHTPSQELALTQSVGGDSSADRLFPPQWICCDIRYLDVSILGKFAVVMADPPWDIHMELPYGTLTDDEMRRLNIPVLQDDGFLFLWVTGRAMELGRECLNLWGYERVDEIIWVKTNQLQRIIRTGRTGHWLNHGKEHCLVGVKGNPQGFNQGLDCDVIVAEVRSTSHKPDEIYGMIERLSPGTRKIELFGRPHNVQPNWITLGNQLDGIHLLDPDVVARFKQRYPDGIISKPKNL

Target: methyltransferase‐like protein 3 (METTL3) (human) (UniProt Q86U44)
Assay: co-IP; protein extracted in RIPA lysis buffer; co-IP with a Magna RIP RNA-Binding Protein Immunoprecipitation Kit; cells and precipitating antibody not stated

B1: PGC‐1α (protein, UniProt Q9UBK2-1 1-798)
chain: MAWDMCNQDSESVWSDIECAALVGEDQPLCPDLPELDLSELDVNDLDTDSFLGGLKWCSDQSEIISNQYNNEPSNIFEKIDEENEANLLAVLTETLDSLPVDEDGLPSFDALTDGDVTTDNEASPSSMPDGTPPPQEAEEPSLLKKLLLAPANTQLSYNECSGLSTQNHANHNHRIRTNPAIVKTENSWSNKAKSICQQQKPQRRPCSELLKYLTTNDDPPHTKPTENRNSSRDKCTSKKKSHTQSQSQHLQAKPTTLSLPLTPESPNDPKGSPFENKTIERTLSVELSGTAGLTPPTTPPHKANQDNPFRASPKLKSSCKTVVPPPSKKPRYSESSGTQGNNSTKKGPEQSELYAQLSKSSVLTGGHEERKTKRPSLRLFGDHDYCQSINSKTEILINISQELQDSRQLENKDVSSDWQGQICSSTDSDQCYLRETLEASKQVSPCSTRKQLQDQEIRAELNKHFGHPSQAVFDDEADKTGELRDSDFSNEQFSKLPMFINSGLAMDGLFDDSEDESDKLSYPWDGTQSYSLFNVSPSCSSFNSPCRDSVSPPKSLFSQRPQRMRSRSRSFSRHRSCSRSPYSRSRSRSPGSRSSSRSCYYYESSHYRHRTHRNSPLYVRSRSRSPYSRRPRYDSYEEYQHERLKREEYRREYEKRESERAKQRERQRQKAIEERRVIYVGKIRPDTTRTELRDRFEVFGEIEECTVNLRDDGDSYGFITYRYTCDAFAALENGYTLRRSNETDFELYFCGRKQFFKSNYADLDSNSDDFDPASTKSKYDSLDFDSLLKEAQRSLRR
binding: no binding
